Data on 1 compound can be found in article PMC12346480, “The Pharmacokinetic and Pharmacodynamic Relationship of Clinically Used Antiseizure Medications in the Maximal Electroshock Seizure Model in Rodents” (International Journal of Molecular Sciences, 2025).

In the series the test system is MES-induced seizures. The format is in vivo. The following applies: mouse brain EC50 relative to rat.

Several values for one entry are separate records, joined by “and”; a condition that tells them apart may be missing. Identical values can stand only once.

Take `NC(=O)O[C@@H](Cn1ncnn1)c1ccccc1Cl` [CNB, cenobamate]: the “Mouse/rat fold of brain EC50” value was 2 fold and 2.33 fold.
